{
  "sequences": {"note": "Protein sequences, listed by entry. Tags and fused reporters are not part of them. Lines headed by an entry give the natural chain unless they say otherwise; changes in a name come on top.", "UniProt Q5T200": "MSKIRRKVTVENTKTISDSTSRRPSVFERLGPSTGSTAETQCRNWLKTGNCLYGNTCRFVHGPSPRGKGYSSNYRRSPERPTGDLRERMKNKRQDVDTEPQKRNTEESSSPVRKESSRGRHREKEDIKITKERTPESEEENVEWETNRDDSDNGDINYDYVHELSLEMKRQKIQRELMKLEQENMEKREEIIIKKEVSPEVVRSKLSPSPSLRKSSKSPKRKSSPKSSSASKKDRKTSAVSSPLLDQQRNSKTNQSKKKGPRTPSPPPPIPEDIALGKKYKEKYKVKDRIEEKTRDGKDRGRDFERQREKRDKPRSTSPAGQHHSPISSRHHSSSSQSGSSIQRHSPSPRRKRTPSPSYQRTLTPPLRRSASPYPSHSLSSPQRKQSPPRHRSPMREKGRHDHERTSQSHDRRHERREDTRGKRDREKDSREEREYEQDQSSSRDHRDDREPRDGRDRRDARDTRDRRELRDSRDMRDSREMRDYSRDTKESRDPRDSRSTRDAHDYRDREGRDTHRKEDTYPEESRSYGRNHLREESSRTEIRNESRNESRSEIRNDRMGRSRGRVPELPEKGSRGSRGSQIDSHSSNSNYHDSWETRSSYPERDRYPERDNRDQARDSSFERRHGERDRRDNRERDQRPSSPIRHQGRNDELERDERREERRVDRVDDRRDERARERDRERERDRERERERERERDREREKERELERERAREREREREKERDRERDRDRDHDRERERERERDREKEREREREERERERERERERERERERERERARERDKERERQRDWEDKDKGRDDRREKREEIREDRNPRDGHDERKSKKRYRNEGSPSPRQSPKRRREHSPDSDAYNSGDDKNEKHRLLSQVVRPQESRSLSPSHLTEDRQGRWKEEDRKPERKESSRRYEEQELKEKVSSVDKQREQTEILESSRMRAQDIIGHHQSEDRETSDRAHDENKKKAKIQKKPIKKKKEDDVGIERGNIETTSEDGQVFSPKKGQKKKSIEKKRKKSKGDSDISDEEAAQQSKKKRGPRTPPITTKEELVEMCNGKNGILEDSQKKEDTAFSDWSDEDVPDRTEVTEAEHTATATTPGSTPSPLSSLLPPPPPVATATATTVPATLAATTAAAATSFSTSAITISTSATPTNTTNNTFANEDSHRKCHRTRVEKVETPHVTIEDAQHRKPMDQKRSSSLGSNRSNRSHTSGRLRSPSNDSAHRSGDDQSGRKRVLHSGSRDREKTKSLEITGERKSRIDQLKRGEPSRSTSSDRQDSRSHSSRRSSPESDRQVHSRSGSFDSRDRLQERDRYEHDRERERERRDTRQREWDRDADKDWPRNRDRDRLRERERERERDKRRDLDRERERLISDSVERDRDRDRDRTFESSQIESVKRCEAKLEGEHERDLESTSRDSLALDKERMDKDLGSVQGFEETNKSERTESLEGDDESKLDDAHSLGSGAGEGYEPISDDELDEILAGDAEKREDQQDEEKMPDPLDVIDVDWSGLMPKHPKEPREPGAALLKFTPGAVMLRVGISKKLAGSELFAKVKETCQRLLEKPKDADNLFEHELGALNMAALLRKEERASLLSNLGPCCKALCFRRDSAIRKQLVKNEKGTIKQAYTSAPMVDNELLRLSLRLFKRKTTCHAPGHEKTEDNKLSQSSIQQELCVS", "UniProt Q9H5U6": "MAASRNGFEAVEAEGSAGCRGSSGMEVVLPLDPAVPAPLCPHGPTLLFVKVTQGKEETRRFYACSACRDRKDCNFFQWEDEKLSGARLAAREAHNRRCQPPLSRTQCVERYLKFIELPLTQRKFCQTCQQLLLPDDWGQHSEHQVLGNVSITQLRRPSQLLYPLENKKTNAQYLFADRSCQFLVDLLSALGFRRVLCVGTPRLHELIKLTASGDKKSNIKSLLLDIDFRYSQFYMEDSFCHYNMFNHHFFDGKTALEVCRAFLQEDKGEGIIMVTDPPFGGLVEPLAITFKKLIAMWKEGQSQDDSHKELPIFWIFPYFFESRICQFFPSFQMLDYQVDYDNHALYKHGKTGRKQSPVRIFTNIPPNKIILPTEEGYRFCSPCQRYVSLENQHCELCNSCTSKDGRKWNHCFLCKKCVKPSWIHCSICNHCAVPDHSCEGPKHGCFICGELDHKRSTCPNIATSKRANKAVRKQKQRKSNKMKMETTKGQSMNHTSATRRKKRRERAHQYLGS", "UniProt Q8IZH2": "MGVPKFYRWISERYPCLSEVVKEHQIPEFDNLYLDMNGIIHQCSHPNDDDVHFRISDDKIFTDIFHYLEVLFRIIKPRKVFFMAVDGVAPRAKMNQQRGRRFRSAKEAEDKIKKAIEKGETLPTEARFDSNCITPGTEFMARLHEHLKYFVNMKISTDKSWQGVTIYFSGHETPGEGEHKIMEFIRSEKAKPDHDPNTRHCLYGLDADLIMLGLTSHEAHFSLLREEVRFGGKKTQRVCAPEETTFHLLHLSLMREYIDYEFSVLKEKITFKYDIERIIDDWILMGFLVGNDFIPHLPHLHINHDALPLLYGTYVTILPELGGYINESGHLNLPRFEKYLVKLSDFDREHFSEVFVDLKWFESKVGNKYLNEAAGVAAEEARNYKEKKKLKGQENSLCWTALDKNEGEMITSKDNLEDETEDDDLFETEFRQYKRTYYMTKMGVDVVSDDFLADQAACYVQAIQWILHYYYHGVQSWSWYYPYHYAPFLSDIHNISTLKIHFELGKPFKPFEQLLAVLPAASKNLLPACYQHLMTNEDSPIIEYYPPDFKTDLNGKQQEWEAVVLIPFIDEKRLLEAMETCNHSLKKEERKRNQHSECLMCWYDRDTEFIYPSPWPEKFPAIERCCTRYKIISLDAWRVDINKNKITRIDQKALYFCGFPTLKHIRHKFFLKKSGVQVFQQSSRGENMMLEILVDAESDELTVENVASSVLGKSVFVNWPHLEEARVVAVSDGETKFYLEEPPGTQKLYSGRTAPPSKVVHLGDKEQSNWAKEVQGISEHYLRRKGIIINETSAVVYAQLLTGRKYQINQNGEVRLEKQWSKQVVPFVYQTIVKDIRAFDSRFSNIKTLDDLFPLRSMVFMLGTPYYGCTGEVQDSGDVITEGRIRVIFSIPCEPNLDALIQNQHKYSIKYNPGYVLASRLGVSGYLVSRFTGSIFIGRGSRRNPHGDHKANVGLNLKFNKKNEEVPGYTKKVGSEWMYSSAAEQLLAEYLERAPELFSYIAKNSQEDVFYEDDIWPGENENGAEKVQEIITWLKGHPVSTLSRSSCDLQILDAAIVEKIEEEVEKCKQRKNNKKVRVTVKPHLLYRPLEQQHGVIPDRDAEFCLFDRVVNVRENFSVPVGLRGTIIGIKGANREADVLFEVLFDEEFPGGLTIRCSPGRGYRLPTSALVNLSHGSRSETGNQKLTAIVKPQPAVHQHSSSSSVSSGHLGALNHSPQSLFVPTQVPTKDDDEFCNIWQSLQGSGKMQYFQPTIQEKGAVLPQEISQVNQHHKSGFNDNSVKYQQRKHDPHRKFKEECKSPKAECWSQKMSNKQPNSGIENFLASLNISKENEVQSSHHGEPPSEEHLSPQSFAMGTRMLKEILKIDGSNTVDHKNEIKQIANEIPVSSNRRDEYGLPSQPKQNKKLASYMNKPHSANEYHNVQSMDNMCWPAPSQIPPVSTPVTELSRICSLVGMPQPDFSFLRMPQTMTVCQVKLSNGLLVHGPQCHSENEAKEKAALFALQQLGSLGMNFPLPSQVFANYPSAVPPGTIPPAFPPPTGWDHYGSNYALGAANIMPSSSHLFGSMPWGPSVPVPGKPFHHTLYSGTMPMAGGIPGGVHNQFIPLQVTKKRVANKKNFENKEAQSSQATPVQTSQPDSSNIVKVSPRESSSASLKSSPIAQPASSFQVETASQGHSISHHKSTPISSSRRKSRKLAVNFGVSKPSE", "UniProt Q9NUD5": "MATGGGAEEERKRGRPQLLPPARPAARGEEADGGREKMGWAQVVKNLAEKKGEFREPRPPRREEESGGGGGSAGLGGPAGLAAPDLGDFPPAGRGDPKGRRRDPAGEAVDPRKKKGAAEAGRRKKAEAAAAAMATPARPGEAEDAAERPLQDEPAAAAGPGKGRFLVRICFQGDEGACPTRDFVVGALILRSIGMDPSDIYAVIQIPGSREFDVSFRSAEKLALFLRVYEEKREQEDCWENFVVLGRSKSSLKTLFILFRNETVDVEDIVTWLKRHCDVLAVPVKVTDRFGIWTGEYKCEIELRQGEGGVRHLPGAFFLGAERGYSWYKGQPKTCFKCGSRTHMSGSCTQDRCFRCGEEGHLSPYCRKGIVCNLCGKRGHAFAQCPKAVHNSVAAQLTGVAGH", "UniProt Q8TCF1": "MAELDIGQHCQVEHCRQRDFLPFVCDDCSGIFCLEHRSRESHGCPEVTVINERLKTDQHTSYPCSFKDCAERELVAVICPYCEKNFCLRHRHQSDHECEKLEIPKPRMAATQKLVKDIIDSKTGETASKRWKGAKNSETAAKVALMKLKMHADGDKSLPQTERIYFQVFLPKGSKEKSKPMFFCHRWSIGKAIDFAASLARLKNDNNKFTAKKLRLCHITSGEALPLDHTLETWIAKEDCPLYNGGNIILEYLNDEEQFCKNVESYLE", "UniProt Q8IWR0": "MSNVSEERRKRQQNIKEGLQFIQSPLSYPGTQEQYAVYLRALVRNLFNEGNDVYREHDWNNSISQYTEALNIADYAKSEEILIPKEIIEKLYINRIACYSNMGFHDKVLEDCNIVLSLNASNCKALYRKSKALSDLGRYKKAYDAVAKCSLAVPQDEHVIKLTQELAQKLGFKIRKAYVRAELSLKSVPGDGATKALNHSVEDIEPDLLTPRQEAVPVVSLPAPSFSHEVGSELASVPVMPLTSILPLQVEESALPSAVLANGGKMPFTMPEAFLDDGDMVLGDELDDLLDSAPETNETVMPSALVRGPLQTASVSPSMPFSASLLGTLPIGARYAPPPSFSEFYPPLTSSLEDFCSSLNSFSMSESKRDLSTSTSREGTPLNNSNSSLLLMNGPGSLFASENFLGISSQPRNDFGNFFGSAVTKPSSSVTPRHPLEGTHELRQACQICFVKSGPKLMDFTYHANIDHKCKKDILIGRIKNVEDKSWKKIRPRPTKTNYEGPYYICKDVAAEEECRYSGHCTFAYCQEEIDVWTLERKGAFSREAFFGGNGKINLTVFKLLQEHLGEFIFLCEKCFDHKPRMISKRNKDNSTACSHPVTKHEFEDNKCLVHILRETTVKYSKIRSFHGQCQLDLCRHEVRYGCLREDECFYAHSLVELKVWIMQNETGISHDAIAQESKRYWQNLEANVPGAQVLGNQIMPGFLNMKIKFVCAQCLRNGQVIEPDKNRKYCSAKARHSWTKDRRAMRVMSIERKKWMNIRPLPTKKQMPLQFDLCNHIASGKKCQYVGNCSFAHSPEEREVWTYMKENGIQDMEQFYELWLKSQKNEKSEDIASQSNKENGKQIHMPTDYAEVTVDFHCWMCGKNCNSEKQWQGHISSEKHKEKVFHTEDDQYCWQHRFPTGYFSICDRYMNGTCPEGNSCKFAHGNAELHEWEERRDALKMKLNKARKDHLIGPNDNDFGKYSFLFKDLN", "UniProt O95365": "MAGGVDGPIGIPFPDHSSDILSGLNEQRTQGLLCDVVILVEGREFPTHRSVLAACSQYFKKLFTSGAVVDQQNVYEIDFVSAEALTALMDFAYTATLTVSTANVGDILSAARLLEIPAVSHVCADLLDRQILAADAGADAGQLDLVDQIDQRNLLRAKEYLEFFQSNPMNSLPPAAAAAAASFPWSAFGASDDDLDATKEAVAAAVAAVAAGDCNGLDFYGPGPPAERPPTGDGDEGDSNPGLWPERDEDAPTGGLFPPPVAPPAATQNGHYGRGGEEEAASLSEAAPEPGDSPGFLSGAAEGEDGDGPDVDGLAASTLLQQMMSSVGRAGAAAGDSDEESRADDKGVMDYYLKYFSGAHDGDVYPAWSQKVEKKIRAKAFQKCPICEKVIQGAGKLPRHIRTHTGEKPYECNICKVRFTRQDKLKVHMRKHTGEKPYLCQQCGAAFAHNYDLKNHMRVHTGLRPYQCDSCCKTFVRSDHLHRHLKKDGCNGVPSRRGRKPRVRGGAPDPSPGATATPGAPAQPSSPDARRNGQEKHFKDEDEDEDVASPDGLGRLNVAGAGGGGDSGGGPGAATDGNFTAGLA", "UniProt Q8NBI6": "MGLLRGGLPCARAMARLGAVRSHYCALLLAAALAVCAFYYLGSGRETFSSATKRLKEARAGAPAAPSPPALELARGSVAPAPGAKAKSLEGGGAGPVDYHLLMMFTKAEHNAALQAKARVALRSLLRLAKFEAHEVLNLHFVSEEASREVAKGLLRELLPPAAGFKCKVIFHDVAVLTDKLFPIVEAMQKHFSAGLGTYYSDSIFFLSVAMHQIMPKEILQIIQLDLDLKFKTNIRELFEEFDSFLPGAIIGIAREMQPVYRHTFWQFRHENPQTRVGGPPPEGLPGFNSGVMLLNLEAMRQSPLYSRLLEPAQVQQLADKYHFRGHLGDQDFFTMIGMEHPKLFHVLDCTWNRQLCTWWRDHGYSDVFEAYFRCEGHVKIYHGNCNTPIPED"},
  "source": "the supplement of paper PMC12067093",
  "about": "“Discovery and optimisation of a covalent ligand for TRIM25 and its application to targeted protein ubiquitination” (Chemical Science, 2025)",
  "note": "This is one part of the list.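 Also: competitive chemoproteomic profiling in live THP-1 cells with an iodoacetamide desthiobiotin (IA-DTB) probe, comparing probe-labelled peptide intensities in compound-treated cells against DMSO-treated controls.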",
  "data": [
    {"compound": "CC1Cc2ccccc2N1C(=O)C1CCCN(C1)C(=O)CCl (mixture of isomers) [TRIM25 ligand 11 (diastereomer mixture)]", "experiment": "probe-labelled cysteine peptide fold change vs DMSO (competition) (log2 fold change); higher = less target engagement (more negative = stronger competition)", "settings": "10 µM; THP-1; incubation time: 4 h", "values": [
      {"target": "ZBTB33_Q86T24_32_GHGLFCDVTVIVEDR (UniProt Q86T24)", "probe-labelled cysteine peptide fold change": 0.256},
      {"target": "XRCC5_P13010_418_HNYECLVYVQLPFMEDLR (UniProt P13010)", "probe-labelled cysteine peptide fold change": 0.0597},
      {"target": "XPO5_Q9HAV4_847_FFSTLYENCFHILGK (UniProt Q9HAV4)", "probe-labelled cysteine peptide fold change": 0.0439},
      {"target": "ZC3H13_Q5T200_1666_LSQSSIQQELCVS (UniProt Q5T200)", "probe-labelled cysteine peptide fold change": 0.117},
      {"target": "ZBED4_O75132_1124_FLGCPPSIVPSEK (UniProt O75132)", "probe-labelled cysteine peptide fold change": 0.00864},
      {"target": "ZCCHC4_Q9H5U6_19_NGFEAVEAEGSAGCR (UniProt Q9H5U6)", "probe-labelled cysteine peptide fold change": -0.0203},
      {"target": "ZC3HAV1_Q7Z2W4_798_AYVESICSNNFDSFLHETHENK (UniProt Q7Z2W4)", "probe-labelled cysteine peptide fold change": 0.0747},
      {"target": "ZC3HC1_Q86WB0_112_YGWVTVECDMLK (UniProt Q86WB0)", "probe-labelled cysteine peptide fold change": -0.0653},
      {"target": "XRN1_Q8IZH2_132_FDSNCITPGTEFMAR (UniProt Q8IZH2)", "probe-labelled cysteine peptide fold change": 0.108},
      {"target": "YME1L1_Q96TA2_433_ANAPCVIFIDELDSVGGKR (UniProt Q96TA2)", "probe-labelled cysteine peptide fold change": -0.109},
      {"target": "ZCCHC3_Q9NUD5_356+366_CGEEGHLSPYCR (UniProt Q9NUD5)", "probe-labelled cysteine peptide fold change": -0.0896},
      {"target": "XPO5_Q9HAV4_941_SLLCGEDEAADENPESQEMLEEQLVR (UniProt Q9HAV4)", "probe-labelled cysteine peptide fold change": -0.212},
      {"target": "ZBED4_O75132_156_DLSTSCLMR (UniProt O75132)", "probe-labelled cysteine peptide fold change": -0.0156},
      {"target": "ZFAND1_Q8TCF1_184_SKPMFFCHR (UniProt Q8TCF1)", "probe-labelled cysteine peptide fold change": -0.134},
      {"target": "ZC3H7A_Q8IWR0_98_IACYSNMGFHDK (UniProt Q8IWR0)", "probe-labelled cysteine peptide fold change": -0.0854},
      {"target": "ZBTB7A_O95365_123_LLEIPAVSHVCADLLDR (UniProt O95365)", "probe-labelled cysteine peptide fold change": -0.168},
      {"target": "ZC3HAV1L_Q96H79_99+108_GECQACDQLHFCR (UniProt Q96H79)", "probe-labelled cysteine peptide fold change": -0.032},
      {"target": "ZFAND1_Q8TCF1_44_ESHGCPEVTVINER (UniProt Q8TCF1)", "probe-labelled cysteine peptide fold change": -0.0486},
      {"target": "ZC3HAV1L_Q96H79_125_DCWSTCTLSHDIHTPVNMQVLK (UniProt Q96H79)", "probe-labelled cysteine peptide fold change": -0.175},
      {"target": "XXYLT1_Q8NBI6_386_IYHGNCNTPIPED (UniProt Q8NBI6)", "probe-labelled cysteine peptide fold change": -0.0662},
      {"target": "ZC3H11A_O75152_588_SVLTPLRGDVASCNTQVAEK (UniProt O75152)", "probe-labelled cysteine peptide fold change": -0.116}
    ]},
    {"compound": "CC1Cc2ccccc2N1C(=O)C1CCCN(C1)C(=O)CCl (mixture of isomers) [TRIM25 ligand 11 (diastereomer mixture)]", "experiment": "probe-labelled cysteine peptide fold change vs DMSO (competition) (log2 fold change); higher = less target engagement (more negative = stronger competition)", "settings": "50 µM; THP-1; incubation time: 4 h", "values": [
      {"target": "XXYLT1_Q8NBI6_350_LFHVLDCTWNR (UniProt Q8NBI6)", "probe-labelled cysteine peptide fold change": 0.0636},
      {"target": "ZC3HC1_Q86WB0_190_FQSLCHLDLQLPSLRPEDLK (UniProt Q86WB0)", "probe-labelled cysteine peptide fold change": 0.19},
      {"target": "YWHAQ_P27348_134_YLAEVACGDDR (UniProt P27348)", "probe-labelled cysteine peptide fold change": 0.0518},
      {"target": "YES1_P07947_42_YRPENTPEPVSTSVSHYGAEPTTVSPCPSSSAK (UniProt P07947)", "probe-labelled cysteine peptide fold change": -0.239},
      {"target": "XPO6_Q96QU8_547_LNITAENDCR (UniProt Q96QU8)", "probe-labelled cysteine peptide fold change": -0.0408},
      {"target": "ZBTB11_O95625_214_LSNQFCDVTLLIEGEEYK (UniProt O95625)", "probe-labelled cysteine peptide fold change": 0.161},
      {"target": "ZCRB1_Q8TBF4_67_DSAQNCTR (UniProt Q8TBF4)", "probe-labelled cysteine peptide fold change": 0.0314},
      {"target": "XRCC5_P13010_339_CFSVLGFCK (UniProt P13010)", "probe-labelled cysteine peptide fold change": 0.0299},
      {"target": "ZC3H14_Q6PJT7_652_CTKPDCPFTHVSR (UniProt Q6PJT7)", "probe-labelled cysteine peptide fold change": -0.00933},
      {"target": "XRN2_Q9H0D6_276_DCEGLPR (UniProt Q9H0D6)", "probe-labelled cysteine peptide fold change": 0.102},
      {"target": "ZC3H7B_Q9UGR2_91_AACYFTMGLYEK (UniProt Q9UGR2)", "probe-labelled cysteine peptide fold change": -0.0506},
      {"target": "ZCCHC3_Q9NUD5_372_KGIVCNLCGK (UniProt Q9NUD5)", "probe-labelled cysteine peptide fold change": -0.0543},
      {"target": "ZFAND1_Q8TCF1_25_DFLPFVCDDCSGIFCLEHR (UniProt Q8TCF1)", "probe-labelled cysteine peptide fold change": 0.0278},
      {"target": "ZBTB33_Q86T24_32_GHGLFCDVTVIVEDRK (UniProt Q86T24)", "probe-labelled cysteine peptide fold change": 0.115},
      {"target": "ZC3H4_Q9UPT8_433_FYITGFCAR (UniProt Q9UPT8)", "probe-labelled cysteine peptide fold change": 0.155},
      {"target": "XPO5_Q9HAV4_1025_HEDVCTALLITAFNSLAWK (UniProt Q9HAV4)", "probe-labelled cysteine peptide fold change": 0.123},
      {"target": "XPO5_Q9HAV4_977_EVMDLITVCCVSK (UniProt Q9HAV4)", "probe-labelled cysteine peptide fold change": 0.0186},
      {"target": "ZBTB33_Q86T24_32_GHGLFCDVTVIVEDR (UniProt Q86T24)", "probe-labelled cysteine peptide fold change": 0.0892},
      {"target": "XRCC5_P13010_418_HNYECLVYVQLPFMEDLR (UniProt P13010)", "probe-labelled cysteine peptide fold change": 0.0809},
      {"target": "XPO5_Q9HAV4_847_FFSTLYENCFHILGK (UniProt Q9HAV4)", "probe-labelled cysteine peptide fold change": 0.121},
      {"target": "ZC3H13_Q5T200_1666_LSQSSIQQELCVS (UniProt Q5T200)", "probe-labelled cysteine peptide fold change": -0.163},
      {"target": "ZBED4_O75132_1124_FLGCPPSIVPSEK (UniProt O75132)", "probe-labelled cysteine peptide fold change": 0.0176},
      {"target": "ZCCHC4_Q9H5U6_19_NGFEAVEAEGSAGCR (UniProt Q9H5U6)", "probe-labelled cysteine peptide fold change": -0.109},
      {"target": "ZC3HAV1_Q7Z2W4_798_AYVESICSNNFDSFLHETHENK (UniProt Q7Z2W4)", "probe-labelled cysteine peptide fold change": 0.0853},
      {"target": "ZC3HC1_Q86WB0_112_YGWVTVECDMLK (UniProt Q86WB0)", "probe-labelled cysteine peptide fold change": -0.0077},
      {"target": "XRN1_Q8IZH2_132_FDSNCITPGTEFMAR (UniProt Q8IZH2)", "probe-labelled cysteine peptide fold change": 0.199},
      {"target": "YME1L1_Q96TA2_433_ANAPCVIFIDELDSVGGKR (UniProt Q96TA2)", "probe-labelled cysteine peptide fold change": -0.361},
      {"target": "ZCCHC3_Q9NUD5_356+366_CGEEGHLSPYCR (UniProt Q9NUD5)", "probe-labelled cysteine peptide fold change": -0.148},
      {"target": "XPO5_Q9HAV4_941_SLLCGEDEAADENPESQEMLEEQLVR (UniProt Q9HAV4)", "probe-labelled cysteine peptide fold change": -0.177},
      {"target": "ZBED4_O75132_156_DLSTSCLMR (UniProt O75132)", "probe-labelled cysteine peptide fold change": 0.00774},
      {"target": "ZFAND1_Q8TCF1_184_SKPMFFCHR (UniProt Q8TCF1)", "probe-labelled cysteine peptide fold change": -0.174},
      {"target": "ZC3H7A_Q8IWR0_98_IACYSNMGFHDK (UniProt Q8IWR0)", "probe-labelled cysteine peptide fold change": -0.0318},
      {"target": "ZBTB7A_O95365_123_LLEIPAVSHVCADLLDR (UniProt O95365)", "probe-labelled cysteine peptide fold change": 0.0262},
      {"target": "ZC3HAV1L_Q96H79_99+108_GECQACDQLHFCR (UniProt Q96H79)", "probe-labelled cysteine peptide fold change": 0.0459},
      {"target": "ZFAND1_Q8TCF1_44_ESHGCPEVTVINER (UniProt Q8TCF1)", "probe-labelled cysteine peptide fold change": 0.0179},
      {"target": "ZC3HAV1L_Q96H79_125_DCWSTCTLSHDIHTPVNMQVLK (UniProt Q96H79)", "probe-labelled cysteine peptide fold change": -0.126},
      {"target": "XXYLT1_Q8NBI6_386_IYHGNCNTPIPED (UniProt Q8NBI6)", "probe-labelled cysteine peptide fold change": 0.0223},
      {"target": "ZC3H11A_O75152_588_SVLTPLRGDVASCNTQVAEK (UniProt O75152)", "probe-labelled cysteine peptide fold change": -0.0987}
    ]}
  ]
}
